Data as given in PubChem BioAssay AID1159578 (Peter MacCallum Cancer Centre, 2015)

Screen: 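Knock-downs that alter how fast lymphatic endothelial cells migrate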 (primary screen)
System: human lymphatic endothelial cells
Reagent: siRNA pool against human genes, 40 nM
Time to read-out: 48 h after transfection
Detection: 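High-content imaging of dye-stained cells in a scratch assay measures filled wound area and nuclei per well; duplicate means given as ratio to mock and robust z-score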
Reading the numbers: migration robust z-score: higher = faster migration into the scratch; nuclei per well: higher = more cells in the well
Active means: 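Pools averaging fewer than 3300 nuclei are never called; remaining pools count as changed when migration robust z lies outside -2 to 2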
Calls: active = migration changed; inactive = no migration change, or too few cells
The whole screen tested about 18,000 reagents; this is a part drawn at random. Over the whole deposit, about 1,030 (5.7%) were called active. 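Inactive calls also include pools with fewer than 3300 nuclei, whose migration was not assessed.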 Raw values vary from plate to plate and are shown uncorrected. A number with no mark means an inactive call. Further read-outs or replicates are left out here.

AQP11 (GeneID 282679) — migration robust z-score: 0.15; migration class with cell-count check: migration z between -2 and 2; enough cells; nuclei per well, duplicate mean: 5685
REL (GeneID 5966) — migration robust z-score: 0.7; migration class with cell-count check: migration z between -2 and 2; enough cells; nuclei per well, duplicate mean: 5086
MYO9B (GeneID 4650) — migration robust z-score: -0.13; migration class with cell-count check: migration z between -2 and 2; enough cells; nuclei per well, duplicate mean: 4290
COPZ2 (GeneID 51226) — migration robust z-score: -3.77; migration class with cell-count check: under 3300 nuclei; migration not judged; nuclei per well, duplicate mean: 2200
KIF24 (GeneID 347240) — migration robust z-score: 0.38; migration class with cell-count check: migration z between -2 and 2; enough cells; nuclei per well, duplicate mean: 5984
ATP5F1B (GeneID 506) — migration robust z-score: -1.09; migration class with cell-count check: migration z between -2 and 2; enough cells; nuclei per well, duplicate mean: 3334
COL9A2 (GeneID 1298) — migration robust z-score: 0.17; migration class with cell-count check: migration z between -2 and 2; enough cells; nuclei per well, duplicate mean: 4746
CDH15 (GeneID 1013) — migration robust z-score: -0.62; migration class with cell-count check: migration z between -2 and 2; enough cells; nuclei per well, duplicate mean: 5221
GLP2R (GeneID 9340) — migration robust z-score: 0.7; migration class with cell-count check: migration z between -2 and 2; enough cells; nuclei per well, duplicate mean: 6164
SCN3A (GeneID 6328) — migration robust z-score: -0.68; migration class with cell-count check: migration z between -2 and 2; enough cells; nuclei per well, duplicate mean: 6309
SLC22A9 (GeneID 114571) — migration robust z-score: -0.44; migration class with cell-count check: migration z between -2 and 2; enough cells; nuclei per well, duplicate mean: 5620
TRIM61 (GeneID 391712) — migration robust z-score: 1.38; migration class with cell-count check: migration z between -2 and 2; enough cells; nuclei per well, duplicate mean: 6540
PSG4 (GeneID 5672) — migration robust z-score: 0.44; migration class with cell-count check: migration z between -2 and 2; enough cells; nuclei per well, duplicate mean: 5432
CHRNB1 (GeneID 1140) — migration robust z-score: 0.34; migration class with cell-count check: migration z between -2 and 2; enough cells; nuclei per well, duplicate mean: 5589
TMEM59 (GeneID 9528) — migration robust z-score: -2.12 (active); migration class with cell-count check: migration z below -2; enough cells; nuclei per well, duplicate mean: 6353
MYL5 (GeneID 4636) — migration robust z-score: -1.25; migration class with cell-count check: migration z between -2 and 2; enough cells; nuclei per well, duplicate mean: 6140
BECN1 (GeneID 8678) — migration robust z-score: -0.39; migration class with cell-count check: migration z between -2 and 2; enough cells; nuclei per well, duplicate mean: 3703
ZGPAT (GeneID 84619) — migration robust z-score: -1.82; migration class with cell-count check: migration z between -2 and 2; enough cells; nuclei per well, duplicate mean: 6109
PON2 (GeneID 5445) — migration robust z-score: -0.34; migration class with cell-count check: migration z between -2 and 2; enough cells; nuclei per well, duplicate mean: 4794
CERS2 (GeneID 29956) — migration robust z-score: -0.86; migration class with cell-count check: migration z between -2 and 2; enough cells; nuclei per well, duplicate mean: 3704
RABL2A (GeneID 11159) — migration robust z-score: -0.21; migration class with cell-count check: migration z between -2 and 2; enough cells; nuclei per well, duplicate mean: 5482

Records above with an active call (1):
TMEM59 (GeneID 9528) — migration robust z-score: -2.12 (active); migration class with cell-count check: migration z below -2; enough cells; nuclei per well, duplicate mean: 6353
